For this experiment, the target named is T1, C terminus of Hsc70 interacting protein (CHIP), wild type, recombinant (human), Q9UNE7.
T1 chain: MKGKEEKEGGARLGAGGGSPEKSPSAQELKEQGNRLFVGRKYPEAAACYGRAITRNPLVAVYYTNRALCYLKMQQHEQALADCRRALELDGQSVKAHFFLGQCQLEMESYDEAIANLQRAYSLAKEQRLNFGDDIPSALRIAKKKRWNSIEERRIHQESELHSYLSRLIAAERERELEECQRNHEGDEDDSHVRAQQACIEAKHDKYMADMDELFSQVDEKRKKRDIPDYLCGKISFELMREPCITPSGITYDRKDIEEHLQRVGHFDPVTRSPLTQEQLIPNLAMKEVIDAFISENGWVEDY
Description: SEC + other: mass photometry; recombinant CHIP run on size-exclusion chromatography, fractions analysed by mass photometry at 30 nM in 20 mM Hepes pH 8, 200 mM NaCl, 1 mM DTT; both purified. The conditions noted are these: remark: other sources report otherwise.

No constants are given. Whether binding was seen depends on the method and setting. Some binding calls cover weakened binding; strength is not graded here.

B1: C terminus of Hsc70 interacting protein (CHIP), wild type, recombinant, Q9UNE7 1-303 (enzyme)
chain: MKGKEEKEGGARLGAGGGSPEKSPSAQELKEQGNRLFVGRKYPEAAACYGRAITRNPLVAVYYTNRALCYLKMQQHEQALADCRRALELDGQSVKAHFFLGQCQLEMESYDEAIANLQRAYSLAKEQRLNFGDDIPSALRIAKKKRWNSIEERRIHQESELHSYLSRLIAAERERELEECQRNHEGDEDDSHVRAQQACIEAKHDKYMADMDELFSQVDEKRKKRDIPDYLCGKISFELMREPCITPSGITYDRKDIEEHLQRVGHFDPVTRSPLTQEQLIPNLAMKEVIDAFISENGWVEDY
For B1, the binding entry is listed as “binds”.

The record behind these values is paper PMC9097460, “The molecular basis of spinocerebellar ataxia type 48 caused by a de novo mutation in the ubiquitin ligase CHIP” (The Journal of Biological Chemistry, 2022).
